Measurements from PMC8091128.
No constants are given. Whether binding was seen depends on the method and setting. Binding seen in cells or lysates may run through a third protein. Binding calls can cover weak binding; strength is not graded here. Sequences can lack the tags named with a protein.

Target: T1, GST-FIP3 (UniProt O75154)
T1 sequence: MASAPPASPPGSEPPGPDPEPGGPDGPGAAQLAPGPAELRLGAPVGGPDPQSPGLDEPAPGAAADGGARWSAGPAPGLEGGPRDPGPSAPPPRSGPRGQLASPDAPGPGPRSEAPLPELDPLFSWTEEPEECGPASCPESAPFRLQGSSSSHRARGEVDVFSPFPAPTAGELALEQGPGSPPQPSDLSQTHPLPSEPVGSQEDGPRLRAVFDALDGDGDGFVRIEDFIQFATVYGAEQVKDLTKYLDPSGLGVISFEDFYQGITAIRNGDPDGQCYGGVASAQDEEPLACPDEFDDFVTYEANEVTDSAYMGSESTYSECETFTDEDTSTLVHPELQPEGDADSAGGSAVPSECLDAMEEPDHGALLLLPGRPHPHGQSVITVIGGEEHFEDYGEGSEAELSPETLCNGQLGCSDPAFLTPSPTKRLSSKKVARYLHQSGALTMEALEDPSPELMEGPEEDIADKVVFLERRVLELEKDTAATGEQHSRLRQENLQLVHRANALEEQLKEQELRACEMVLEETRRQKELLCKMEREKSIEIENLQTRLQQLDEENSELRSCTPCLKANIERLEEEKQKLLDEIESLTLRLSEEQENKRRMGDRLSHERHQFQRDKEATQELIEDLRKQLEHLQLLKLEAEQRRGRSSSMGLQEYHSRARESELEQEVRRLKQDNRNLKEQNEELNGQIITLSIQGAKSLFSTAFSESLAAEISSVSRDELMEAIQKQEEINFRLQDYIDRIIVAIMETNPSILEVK
Assay: pull-down; GST-FIP3 pull-down of active Rab11 from lysates of keratinocytes transfected with GFP, GFP-Rac^Q61L or GFP-Rac^P29S (50 mM Tris HCl pH 7.4, 100 mM NaCl, 1% NP-40, 10% glycerol, 10 mM MgCl2); only the target purified

binding: binds
Substance: Rab11 (endogenous, keratinocytes)
